Drawing on paper PMC3362735, this text covers binding for one substance.

By UniProt entry, the sequences of proteins in these tests, tags left out. Residues count along the entry.
UniProt P33450, residues 36-5147: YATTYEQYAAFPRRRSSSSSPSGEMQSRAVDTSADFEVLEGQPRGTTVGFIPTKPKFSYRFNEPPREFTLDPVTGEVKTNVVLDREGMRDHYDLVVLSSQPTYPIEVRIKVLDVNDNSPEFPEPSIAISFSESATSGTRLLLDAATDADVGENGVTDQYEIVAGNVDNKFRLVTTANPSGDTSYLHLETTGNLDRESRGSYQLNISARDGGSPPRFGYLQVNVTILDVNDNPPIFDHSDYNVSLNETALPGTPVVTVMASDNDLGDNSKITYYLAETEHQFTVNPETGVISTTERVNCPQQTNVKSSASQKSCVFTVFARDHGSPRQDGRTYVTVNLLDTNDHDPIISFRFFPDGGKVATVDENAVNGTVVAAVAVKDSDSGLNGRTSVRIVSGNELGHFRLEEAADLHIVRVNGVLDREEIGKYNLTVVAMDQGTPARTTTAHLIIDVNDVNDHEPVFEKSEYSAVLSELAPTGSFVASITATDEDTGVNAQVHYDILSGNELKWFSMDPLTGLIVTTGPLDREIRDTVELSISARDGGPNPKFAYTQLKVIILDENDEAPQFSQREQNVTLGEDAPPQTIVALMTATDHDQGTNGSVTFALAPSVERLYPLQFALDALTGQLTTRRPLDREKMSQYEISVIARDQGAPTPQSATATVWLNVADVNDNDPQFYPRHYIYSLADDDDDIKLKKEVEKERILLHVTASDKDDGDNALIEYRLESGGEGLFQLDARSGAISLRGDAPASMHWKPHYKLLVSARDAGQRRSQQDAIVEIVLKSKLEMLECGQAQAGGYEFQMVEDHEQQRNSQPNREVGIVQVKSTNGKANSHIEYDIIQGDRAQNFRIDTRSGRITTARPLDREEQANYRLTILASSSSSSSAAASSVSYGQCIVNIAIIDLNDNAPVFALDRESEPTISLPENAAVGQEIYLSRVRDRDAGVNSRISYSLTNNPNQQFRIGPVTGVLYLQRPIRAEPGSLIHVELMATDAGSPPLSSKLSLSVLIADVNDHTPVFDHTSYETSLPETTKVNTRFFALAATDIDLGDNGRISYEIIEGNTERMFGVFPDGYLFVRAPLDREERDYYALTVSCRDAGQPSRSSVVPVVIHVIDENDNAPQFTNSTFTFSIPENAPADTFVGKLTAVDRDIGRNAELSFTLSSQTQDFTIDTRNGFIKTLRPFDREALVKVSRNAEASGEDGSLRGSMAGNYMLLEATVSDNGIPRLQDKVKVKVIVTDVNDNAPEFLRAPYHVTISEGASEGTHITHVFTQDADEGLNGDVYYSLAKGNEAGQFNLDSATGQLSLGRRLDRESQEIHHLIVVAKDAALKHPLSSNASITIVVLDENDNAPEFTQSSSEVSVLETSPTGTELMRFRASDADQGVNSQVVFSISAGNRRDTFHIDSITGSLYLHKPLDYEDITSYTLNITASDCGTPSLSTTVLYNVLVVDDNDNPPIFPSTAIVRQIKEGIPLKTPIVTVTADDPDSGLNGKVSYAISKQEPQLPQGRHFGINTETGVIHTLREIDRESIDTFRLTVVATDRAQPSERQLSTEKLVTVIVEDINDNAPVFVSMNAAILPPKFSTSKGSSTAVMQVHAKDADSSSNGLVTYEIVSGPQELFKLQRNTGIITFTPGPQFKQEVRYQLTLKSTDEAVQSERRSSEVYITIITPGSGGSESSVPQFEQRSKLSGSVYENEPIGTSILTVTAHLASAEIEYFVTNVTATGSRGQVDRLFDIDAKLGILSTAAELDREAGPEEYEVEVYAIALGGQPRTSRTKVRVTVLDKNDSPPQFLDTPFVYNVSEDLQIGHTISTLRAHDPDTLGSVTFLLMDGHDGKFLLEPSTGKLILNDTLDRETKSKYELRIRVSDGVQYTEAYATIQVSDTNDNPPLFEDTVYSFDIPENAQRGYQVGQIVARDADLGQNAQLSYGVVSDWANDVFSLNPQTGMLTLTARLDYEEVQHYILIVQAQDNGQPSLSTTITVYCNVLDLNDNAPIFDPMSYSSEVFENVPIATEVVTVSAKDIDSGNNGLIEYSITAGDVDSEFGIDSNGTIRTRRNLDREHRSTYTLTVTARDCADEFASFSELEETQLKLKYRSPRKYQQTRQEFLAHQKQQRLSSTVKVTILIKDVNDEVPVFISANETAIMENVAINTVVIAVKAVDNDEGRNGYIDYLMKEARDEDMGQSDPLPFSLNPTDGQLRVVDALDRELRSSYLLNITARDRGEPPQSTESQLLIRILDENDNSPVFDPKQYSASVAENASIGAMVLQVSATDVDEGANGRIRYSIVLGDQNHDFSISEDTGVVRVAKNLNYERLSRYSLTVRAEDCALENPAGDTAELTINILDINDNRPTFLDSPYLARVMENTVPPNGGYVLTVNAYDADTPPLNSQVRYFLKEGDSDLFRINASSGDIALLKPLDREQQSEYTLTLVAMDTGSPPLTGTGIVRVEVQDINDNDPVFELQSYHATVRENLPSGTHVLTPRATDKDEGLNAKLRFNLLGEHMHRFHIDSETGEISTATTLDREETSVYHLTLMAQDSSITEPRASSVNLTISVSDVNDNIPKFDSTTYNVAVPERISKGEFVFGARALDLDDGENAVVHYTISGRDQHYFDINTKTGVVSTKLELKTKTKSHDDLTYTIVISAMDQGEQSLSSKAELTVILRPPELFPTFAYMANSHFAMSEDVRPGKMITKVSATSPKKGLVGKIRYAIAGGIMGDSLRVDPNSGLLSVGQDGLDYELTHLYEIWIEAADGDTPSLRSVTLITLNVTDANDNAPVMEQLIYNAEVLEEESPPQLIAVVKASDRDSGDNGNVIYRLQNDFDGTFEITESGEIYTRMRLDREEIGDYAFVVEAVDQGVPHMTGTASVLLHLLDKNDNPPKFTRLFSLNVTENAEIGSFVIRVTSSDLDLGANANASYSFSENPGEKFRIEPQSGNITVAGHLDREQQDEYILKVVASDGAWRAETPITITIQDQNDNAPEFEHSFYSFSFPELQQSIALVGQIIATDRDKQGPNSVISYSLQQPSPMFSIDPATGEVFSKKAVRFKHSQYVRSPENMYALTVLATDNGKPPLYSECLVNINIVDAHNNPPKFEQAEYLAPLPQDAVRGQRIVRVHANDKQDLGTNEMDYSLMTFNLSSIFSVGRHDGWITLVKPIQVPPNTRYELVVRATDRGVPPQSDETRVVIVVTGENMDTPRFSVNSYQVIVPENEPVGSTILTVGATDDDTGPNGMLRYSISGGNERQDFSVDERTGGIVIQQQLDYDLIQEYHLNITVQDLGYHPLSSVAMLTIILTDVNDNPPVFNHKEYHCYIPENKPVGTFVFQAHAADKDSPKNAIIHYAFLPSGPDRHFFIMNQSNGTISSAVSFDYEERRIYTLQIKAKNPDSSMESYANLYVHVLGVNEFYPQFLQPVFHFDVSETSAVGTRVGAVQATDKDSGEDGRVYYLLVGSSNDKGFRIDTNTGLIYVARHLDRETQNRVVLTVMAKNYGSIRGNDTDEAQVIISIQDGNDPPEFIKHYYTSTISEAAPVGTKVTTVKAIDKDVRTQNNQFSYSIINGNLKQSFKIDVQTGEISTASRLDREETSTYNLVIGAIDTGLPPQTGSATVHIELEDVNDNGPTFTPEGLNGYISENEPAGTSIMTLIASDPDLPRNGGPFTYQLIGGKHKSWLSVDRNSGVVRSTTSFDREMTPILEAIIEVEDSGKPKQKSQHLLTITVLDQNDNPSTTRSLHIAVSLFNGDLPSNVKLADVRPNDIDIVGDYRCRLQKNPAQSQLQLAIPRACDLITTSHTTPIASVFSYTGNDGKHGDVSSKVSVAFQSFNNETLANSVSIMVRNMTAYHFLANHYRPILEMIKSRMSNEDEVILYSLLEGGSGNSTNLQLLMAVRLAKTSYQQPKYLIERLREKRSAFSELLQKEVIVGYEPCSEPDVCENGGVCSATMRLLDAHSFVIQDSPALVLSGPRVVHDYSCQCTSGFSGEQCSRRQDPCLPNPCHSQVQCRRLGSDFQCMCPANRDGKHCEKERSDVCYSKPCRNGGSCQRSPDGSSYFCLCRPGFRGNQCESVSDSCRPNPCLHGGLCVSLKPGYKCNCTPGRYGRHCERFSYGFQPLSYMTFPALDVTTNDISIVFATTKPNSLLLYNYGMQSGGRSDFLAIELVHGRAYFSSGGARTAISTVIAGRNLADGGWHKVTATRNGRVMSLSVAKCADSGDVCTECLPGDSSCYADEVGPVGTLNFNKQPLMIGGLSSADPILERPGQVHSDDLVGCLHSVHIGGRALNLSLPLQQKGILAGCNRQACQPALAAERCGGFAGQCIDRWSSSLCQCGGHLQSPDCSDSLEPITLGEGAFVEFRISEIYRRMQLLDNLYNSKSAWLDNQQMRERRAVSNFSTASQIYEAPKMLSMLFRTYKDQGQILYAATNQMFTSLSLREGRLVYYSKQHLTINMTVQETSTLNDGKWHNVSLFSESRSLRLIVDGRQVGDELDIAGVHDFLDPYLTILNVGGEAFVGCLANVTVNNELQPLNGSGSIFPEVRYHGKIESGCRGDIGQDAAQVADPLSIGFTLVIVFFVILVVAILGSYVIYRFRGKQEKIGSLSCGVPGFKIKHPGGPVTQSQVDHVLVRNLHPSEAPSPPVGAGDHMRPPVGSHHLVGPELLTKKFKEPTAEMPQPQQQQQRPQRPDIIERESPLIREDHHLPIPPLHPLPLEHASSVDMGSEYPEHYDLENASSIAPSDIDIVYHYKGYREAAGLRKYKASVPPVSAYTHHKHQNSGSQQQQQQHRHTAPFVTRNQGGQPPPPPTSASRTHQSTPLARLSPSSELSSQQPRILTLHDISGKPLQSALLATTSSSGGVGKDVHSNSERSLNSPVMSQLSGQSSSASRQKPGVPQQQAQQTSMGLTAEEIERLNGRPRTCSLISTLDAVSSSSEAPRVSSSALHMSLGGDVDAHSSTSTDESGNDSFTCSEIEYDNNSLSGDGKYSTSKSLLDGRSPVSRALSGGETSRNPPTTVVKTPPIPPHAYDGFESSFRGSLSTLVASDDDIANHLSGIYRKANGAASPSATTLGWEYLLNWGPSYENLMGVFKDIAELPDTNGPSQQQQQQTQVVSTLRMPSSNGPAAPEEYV

Results are given in words; binding and its absence hold for the method and conditions named. Some results given as binding are weak or reduced against the parent protein; the word gives no strength.

This assay deals with Fat (UniProt P33450). Kind of assay: cell aggregation assay; tissue culture cells; recruitment of Dachs to the site of Ds-Ft binding was looked at (Figures S2L and S2M).

Take Dachsous (from UniProt Q24292 74-3556): the binding result is “binds”.
